From US8318697B2, “Prophylactic and therapeutic treatment of infectious and other diseases with mono- and disaccharide-based compounds” (Corixa Corporation, priority 2000, dated 2012) come the findings set out here.

For the data set, the system named is P. carinii. Description: Protection against P. carinii infection in anti-CD4 treated (immunocompromised) mice, lung impression smear score. The settings on record: pulmonary delivery. In kind it is in vivo. Here is the method:
Mice were pretreated with L3T4 anti-CD4 antibody for a minimum of 2 weeks (2 injections/week, 0.2 mg/injection) or until the peripheral CD4 count was reduced by at least about 50%.
An aqueous formulation was prepared containing 1 mg/ml 3-O-deacylated monophosphoryl lipid A and 108 μg/ml of the surfactant DPPC in water. The formulation was administered intratracheally via a small cannula at −24 hours and then twice a week for the remainder of the study. The concentrations administered are indicated below in Table 1. One million P. carinii were inoculated trans-tracheally at day 0. Twice-weekly treatments were continued for 7 weeks, lungs were removed and impression smears made. Slides were stained with Giemsa and silver and scored for the presence of P. carinni as follows.

As for “3-O-deacylated monophosphoryl lipid A [MPL]”, the “expression of CD11b or CD69 on spleen cells” value was “negative expression of CD11b or CD69”.
